Laboratory results from US20030232013A1 (priority 2002, published 2003).

Experiment: general procedure: Fmoc solid-phase peptide synthesis; Fmoc-Phe-Wang resin; HBTU
Conditions: for oxidative folding yield: oxidative folding step

Substance: DOTA-6-Ahx-Phe^19-STh
- isolated yield (whole synthesis, overall, starting from resin, scale of the general procedure 25 μmol): 1.5%

Substance: DOTA-[Cys(tBu)^10,18]-Phe^19-STh
- oxidative folding yield: 62%

Substance: DOTA-[Cys(Acm)^7,15, Cys(tBu)^10,18]-Phe^19-STh
- oxidative folding yield: 29%
